{"source": "PubChem BioAssay AID1671195 (Yale University, 2021)", "test": "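Regulators of LDL receptor activity judged by labelled LDL uptake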 (primary screen)", "system": "human Huh7 hepatoma cells", "knock-down reagent": "siRNA pool against human genes, 18 nM", "duration": "about 2 to 2.5 days of knockdown, then 8 h LDL uptake", "treatment": "DiI-labelled LDL at 30 µg/ml for 8 h, in lipoprotein-deficient serum medium", "measured": "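Fluorescent LDL signal imaged in cells, scaled to the plate median, robust z-score for each replicate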", "scale": "robust z-score: higher = more LDL uptake after knockdown", "call rule": "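a gene counts as active if at least two replicate z-scores exceed ±2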", "note": "The whole screen tested about 22,000 reagents; below is a random part of them. Of all reagents, about 1,510 (6.9%) were called active. 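Active includes knockdowns raising or lowering LDL uptake; positive z-scores mean more uptake, negative mean less.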 No sequences are given here."}
{"Gene": "MC1R", "robust z-score, replicate 1": -0.644, "robust z-score, replicate 2": 0.662, "robust z-score, replicate 3": -2.66, "Call": "inactive"}
{"Gene": "C9orf85", "robust z-score, replicate 1": -0.0678, "robust z-score, replicate 2": -0.214, "robust z-score, replicate 3": -0.584, "Call": "inactive"}
{"Gene": "DPAGT1", "robust z-score, replicate 1": 1.29, "robust z-score, replicate 2": 1.1, "robust z-score, replicate 3": 0.991, "Call": "inactive"}
{"Gene": "C9orf57", "robust z-score, replicate 1": -1.35, "robust z-score, replicate 2": -1.85, "robust z-score, replicate 3": -2.09, "Call": "inactive"}
{"Gene": "IDE", "robust z-score, replicate 1": 0.633, "robust z-score, replicate 2": -0.14, "robust z-score, replicate 3": -0.0163, "Call": "inactive"}
{"Gene": "RALY", "robust z-score, replicate 1": -0.0648, "robust z-score, replicate 2": 1.47, "robust z-score, replicate 3": -0.799, "Call": "inactive"}
{"Gene": "MARK3", "robust z-score, replicate 1": -0.673, "robust z-score, replicate 2": -0.142, "robust z-score, replicate 3": -0.314, "Call": "inactive"}
{"Gene": "UNG", "robust z-score, replicate 1": 0.0919, "robust z-score, replicate 2": 0.144, "robust z-score, replicate 3": -0.0449, "Call": "inactive"}
{"Gene": "EHHADH", "robust z-score, replicate 1": -0.803, "robust z-score, replicate 2": -1.01, "robust z-score, replicate 3": -0.962, "Call": "inactive"}
{"Gene": "TFPT", "robust z-score, replicate 1": 0.264, "robust z-score, replicate 2": -0.787, "robust z-score, replicate 3": 0.325, "Call": "inactive"}
{"Gene": "NFU1", "robust z-score, replicate 1": -0.836, "robust z-score, replicate 2": -0.937, "robust z-score, replicate 3": -2.23, "Call": "inactive"}
{"Gene": "ZNF292", "robust z-score, replicate 1": 1.5, "robust z-score, replicate 2": 0.673, "robust z-score, replicate 3": 0.857, "Call": "inactive"}
{"Gene": "SEPTIN7P9", "robust z-score, replicate 1": 1.63, "robust z-score, replicate 2": 1.8, "robust z-score, replicate 3": 2.41, "Call": "inactive"}
{"Gene": "TMEM150C", "robust z-score, replicate 1": 0.752, "robust z-score, replicate 2": 0.635, "robust z-score, replicate 3": 1.29, "Call": "inactive"}
{"Gene": "LINC00921", "robust z-score, replicate 1": 0.00593, "robust z-score, replicate 2": 0.0498, "robust z-score, replicate 3": 0.104, "Call": "inactive"}
{"Gene": "TCN1", "robust z-score, replicate 1": 0.0196, "robust z-score, replicate 2": 0.332, "robust z-score, replicate 3": 0.45, "Call": "inactive"}
{"Gene": "A4GNT", "robust z-score, replicate 1": -0.22, "robust z-score, replicate 2": -0.378, "robust z-score, replicate 3": -0.635, "Call": "inactive"}
{"Gene": "MYL12BP3", "robust z-score, replicate 1": 2.67, "robust z-score, replicate 2": 2.48, "robust z-score, replicate 3": 2.52, "Call": "active"}
{"Gene": "TMEM256", "robust z-score, replicate 1": -1.37, "robust z-score, replicate 2": -1.37, "robust z-score, replicate 3": -1.29, "Call": "inactive"}
{"Gene": "OR4C3", "robust z-score, replicate 1": -1.52, "robust z-score, replicate 2": -1.35, "robust z-score, replicate 3": -1.31, "Call": "inactive"}
{"Gene": "MARCHF5", "robust z-score, replicate 1": -0.677, "robust z-score, replicate 2": 0.605, "robust z-score, replicate 3": -0.521, "Call": "inactive"}
{"Gene": "LOC387710 (retired record)", "robust z-score, replicate 1": -0.17, "robust z-score, replicate 2": 0.366, "robust z-score, replicate 3": 0.419, "Call": "inactive"}
{"Gene": "TMOD1", "robust z-score, replicate 1": -1.66, "robust z-score, replicate 2": -2.61, "robust z-score, replicate 3": -1.22, "Call": "inactive"}
{"Gene": "MS4A5", "robust z-score, replicate 1": 1.4, "robust z-score, replicate 2": 0.492, "robust z-score, replicate 3": 0.708, "Call": "inactive"}

Records above whose gene name begins with L or l:
{"Gene": "LINC00921", "robust z-score, replicate 1": 0.00593, "robust z-score, replicate 2": 0.0498, "robust z-score, replicate 3": 0.104, "Call": "inactive"}
{"Gene": "LOC387710 (retired record)", "robust z-score, replicate 1": -0.17, "robust z-score, replicate 2": 0.366, "robust z-score, replicate 3": 0.419, "Call": "inactive"}
